According to article doi:10.1101/2025.08.07.669221:
These are yes or no findings as the source states them, for the method shown. Binding can be weak; no strength is given. Where a sequence is shown, tags or fusion partners need not be part of it. For some assays here: Binding seen in cells or lysates may run through a third protein.

B1: ADA2a fused with the C terminus of YFP (cYFP), BiFC construct (protein, UniProt Q9SFD5 1-548)
chain: MGRSKLASRPAEEDLNPGKSKRKKISLGPENAAASISTGIEAGNERKPGLYCCNYCDKDLSGLVRFKCAVCMDFDLCVECFSVGVELNRHKNSHPYRVMDNLSFSLVTSDWNADEEILLLEAIATYGFGNWKEVADHVGSKTTTECIKHFNSAYMQSPCFPLPDLSHTIGKSKDELLAMSKDSAVKTEIPAFVRLSPKEELPVSAEIKHEASGKVNEIDPPLSALAGVKKKGNVPQAKDIIKLEAAKQQSDRSVGEKKLRLPGEKVPLVTELYGYNLKREEFEIEHDNDAEQLLADMEFKDSDTDAEREQKLQVLRIYSKRLDERKRRKEFVLERNLLYPDQYEMSLSAEERKIYKSCKVFARFQSKEEHKELIKKVIEEHQILRRIEDLQEARTAGCRTTSDANRFIEEKRKKEAEESMLLRLNHGAPGSIAGKTLKSPRGLPRNLHPFGSDSLPKVTPPRIYSGLDTWDVDGLLGADLLSETEKKMCNETRILPVHYLKMLDILTREIKKGQIKKKSDAYSFFKVEPSKVDRVYDMLVHKGIGDST
B2: HOMOLOG OF YEAST ADA2 2a (ADA2a), yeast two-hybrid fusion (protein, UniProt Q9SFD5 1-548)
chain: B1 chain

What was measured:
[1] = target: WIND1 fused with the N terminus of YFP (nYFP), BiFC construct (Arabidopsis thaliana); test: split reporter
[2] = target: WIND1 N-terminal region (N; 1st to 151st amino acids), yeast two-hybrid bait (Arabidopsis thaliana); test: two-hybrid

Binder | binding [1] | binding [2]
B1 | binds | 
B2 |  | binds
